# Values of other authors in patent US9817001B2, “Methods for determining LDL cholesterol treatment” (Boston Heart Diagnostics Corporation, priority 2008, dated 2017).
# Test system: HDL particle profile (α-1 HDL, preβ-1 HDL)
# Details: 80 mg/day versus 40 mg/day
smiles,measurement,value
CC(C)c1c(C(=O)Nc2ccccc2)c(-c2ccccc2)c(-c2ccc(F)cc2)n1CC[C@@H](O)C[C@@H](O)CC(=O)O [atorvastatin],capacity for increasing the α-1 HDL level,less capacity
